Assay results taken from PubChem BioAssay AID493014 (National Center for Advancing Translational Sciences (NCATS), 2011).
This is one part of the list. These are further read-outs of the screen, such as a control signal, another cell line or another target. No call is given for them. Compounds called inactive in the main read-out are mostly missing here. Potencies come from curve fits of mixed quality, noted in brackets.

Test: qHTS Assay to Find Inhibitors of Chronic Active B-Cell Receptor Signaling
Settings: ABC-DLBCL IkBa-CBG/CBR reporter, luminescence ratio (green luciferase fused to IkBa over red control in TMD8 lymphoma cells), 4 h
Summary of the method: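 TMD8 human ABC-DLBCL cells with doxycycline-inducible IκBα–green luciferase fusion and unfused red luciferase, in 0.5% FBS medium; compounds up to 46 uM, 4 h at 37C. Green/red luminescence ratio, filter-overlap corrected, fitted to concentration-response curves.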

[1] = measured here: CBR red luminescence, cell number

| SMILES | AC50 [1] | AC50 (measured here: IkBa-CBG green luminescence) |
| --- | --- | --- |
| CCN(CC)c1ccc(/C=C2\SC(=O)N(C(C)C)C2=O)o1 | 14.1 µM [falling, single point] | – |
| CC(C)C[C@@H](C(=O)NC1CCN(Cc2ccccc2)CC1)N1C(=O)N2CCc3c([nH]c4ccccc34)[C@@]2(C)C1=O | 8.91 µM [falling, partial curve] | – |
| CC(NC(=O)C12CC3CC(CC(C3)C1)C2)C(=O)N/N=C/C1=C(N2CCOCC2)C(=C\c2cccc([N+](=O)[O-])c2)/CC1 (stereo unspecified) | 1.46 µM [rising, full curve, poor fit] | – |
| O=C(N/N=C/c1cccc([N+](=O)[O-])c1)c1ccc2c(c1)OCCO2 | 1.58 µM [falling, full curve, poor fit] | – |
| O=C(COC(=O)CCc1nc2ccccc2c(=O)[nH]1)Nc1c(Cl)cccc1C(F)(F)F | 4.11 µM [rising, single point] | – |
| CC(C)c1csc(CN2CCC(N3CCC(C(=O)N4CCOCC4)CC3)CC2)n1 | 11.2 µM [rising, partial curve, poor fit] | – |
| COC(=O)c1cc(Cl)cc(Cl)c1OS(=O)(=O)N(C)C | 14.1 µM [rising, partial curve, poor fit] | – |
| Cc1ccc(F)cc1NC(=O)N1CCCN(C(=O)OC(C)(C)C)CC1 | 12.6 µM [rising, partial curve] | – |
| COc1ccc(OC)c(C(=O)CSc2nc3cccnc3n2C)c1 | 0.259 µM [falling, full curve, poor fit] | – |
| COc1ccc(C(=O)CSc2[nH]c(=O)cc(C(F)(F)F)c2C#N)cc1 | 35.5 µM [falling, single point] | – |
| Cc1nc(NC(=O)CCl)sc1C(=O)N(C)C | 35.5 µM [falling, single point] | – |
| COc1cccc(C(=O)Nc2nnc(-c3ccc(F)cc3)o2)c1 | 15.8 µM [falling, partial curve] | – |
| O=C1/C(=C/c2coc3ccc(O)cc3c2=O)SC(=S)N1c1ccccc1 | 35.5 µM [falling, single point] | – |
| O=C(NCCc1ccc(Cl)cc1)c1cc2ccccn2n1 | 12.6 µM [falling, partial curve, poor fit] | – |
| N#Cc1ncn(-c2ccc(Oc3ccccc3)cc2)c1N | 35.5 µM [rising, single point] | – |
| CCOC(=O)C1(Cc2ccccc2)CCN(Cc2cccc(OC)c2O)CC1 | 10 µM [falling, partial curve] | – |
| Cc1c(CCC(=O)O)c(=O)oc2c(C)c(OCc3ccccc3Cl)ccc12 | 10 µM [falling, partial curve, poor fit] | – |
| Cc1cc([N+](=O)[O-])ccc1-c1ccc(C2Nc3ccccc3C(=O)N2O)o1 (stereo unspecified) | 14.1 µM [falling, partial curve, poor fit] | – |
| CCOC(=O)[C@@H]1[C@H]2COc3cc(OC)ccc3[C@@H]2N2C(=O)N(c3cccc(F)c3)C(=O)[C@]12C | 25.1 µM [falling, single point] | 22.4 µM [rising, partial curve, poor fit] |
| COCCSc1ccccc1C(=O)Nc1cc(C)on1 | 2.31 µM [falling, partial curve, poor fit] | – |

3 entries out of the list, arranged by formula weight, low to high.

| SMILES | AC50 [1] | AC50 (measured here: IkBa-CBG green luminescence) |
| --- | --- | --- |
| CCN(CC)c1ccc(/C=C2\SC(=O)N(C(C)C)C2=O)o1 | 14.1 µM [falling, single point] | – |
| O=C1/C(=C/c2coc3ccc(O)cc3c2=O)SC(=S)N1c1ccccc1 | 35.5 µM [falling, single point] | – |
| CCOC(=O)[C@@H]1[C@H]2COc3cc(OC)ccc3[C@@H]2N2C(=O)N(c3cccc(F)c3)C(=O)[C@]12C | 25.1 µM [falling, single point] | 22.4 µM [rising, partial curve, poor fit] |

Next structures follow:

| SMILES | AC50 [1] | AC50 (measured here: IkBa-CBG green luminescence) |
| --- | --- | --- |
| COc1ccc(CCNC(=O)c2cc(-c3cc(C)cc(C)c3O)n[nH]2)cc1OC | 22.4 µM [falling, single point] | – |
| CCN(CC(=O)NCc1cccs1)C(=O)/C=C/c1cc(OC)c(OC)c(OC)c1 | 11.6 µM [rising, partial curve, poor fit] | – |
| Cc1ccc2cc3cc(C(=O)N4CC(C)CC(C)C4)oc3nc2c1 (stereo unspecified) | 18.4 µM [rising, partial curve, poor fit] | – |
| Cc1c(C)c2ccc(OCC(=O)N3CCC(C(=O)O)CC3)c(C)c2oc1=O | 2.51 µM [falling, full curve] | – |
| O=C(CN1C(=O)S/C(=C\c2ccccc2Cl)C1=O)NC1C=CS(=O)(=O)C1 (stereo unspecified) | 3.55 µM [falling, partial curve, poor fit] | – |
| Cc1ccc2c(c1)C(N1CCCC1=O)CC(c1ccco1)N2 (stereo unspecified) | 4.47 µM [rising, full curve, poor fit] | – |
| O=C(NCc1ccncc1)C(=O)N/N=C/c1cccnc1 | 22.4 µM [falling, single point] | – |
| COc1ccccc1N1CCN(CCCNC(=O)Nc2ccccc2C)CC1 | 11.2 µM [rising, single point] | – |
| COc1ccc(C)cc1NC(=O)C1COc2ccccc2O1 (stereo unspecified) | 5.62 µM [rising, single point] | – |
| CC1CCCCC1NC(=O)C1CCN(S(=O)(=O)c2ccc(-n3cnnn3)cc2)CC1 (stereo unspecified) | 6.51 µM [rising, single point] | – |
| Nc1c(Cl)cc(Cl)cc1C(=O)OCC(=O)NC1CC1 | 1.84 µM [falling, full curve, poor fit] | – |
| C=C(C)C1CC=C(C)/C(=N/NC(=O)c2cccs2)C1 (stereo unspecified) | 4.11 µM [rising, full curve, poor fit] | – |
| CCN(CC)C(=O)Cn1nc(-c2ccc(Cl)cc2)c2ccccc2c1=O | 0.224 µM [falling, full curve] | – |
| Cc1oc(-c2ccc(Cl)cc2)cc1C(=O)O | 3.98 µM [falling, partial curve] | – |
| COC(=O)CCc1c(C)nc(N)[nH]c1=O | 5.8 µM [rising, full curve] | – |
| Clc1ccc(-c2csc(-c3ccno3)n2)cc1 | 22.4 µM [rising, partial curve, poor fit] | – |
| CCOc1ccccc1OCC(=O)OC(C)C(=O)Nc1ncc(Cl)cc1Cl (stereo unspecified) | 20.6 µM [rising, single point] | – |
| CCn1c(NN)nc2sc3c(c2c1=O)CCC3 | 0.231 µM [falling, partial curve, poor fit] | – |
| O=C(CN(Cc1ccccc1)C(=O)c1cc2c(s1)CCC2)NCc1cccs1 | 3.55 µM [falling, partial curve] | – |
| Cc1cc(=O)oc2cc(OC(C)C(=O)NCC3CCCO3)ccc12 (stereo unspecified) | 6.31 µM [rising, single point] | – |
